# Values of other authors in patent US9447134B2 (priority 2012, dated 2016).
# At least one compound was matched to its structure with a doubt left.
# Test system: Cryptosporidium
# Details: mouse models; cited from earlier work
compound,measurement,value
Cc1cc(/C=C/c2ccc3cc(N(C)C)ccc3[n+]2C)c(C)n1-c1ccccc1 [pyrvinium pamoate],"in vivo anticryptosporidial efficacy (literature, in words)",anticryptosporidial activity
